# Assay results: the supplement of paper PMC12578635
# ± gives the standard deviation of the averaged measurements. The list shows a part of the results. Repeats are few or missing, and single values can be far off.
# Test system: RAW 264.7 macrophages infected with S. aureus JE2-lux
# Assay: host macrophage viability (CellTiter-Fluor) relative to DMSO vehicle; higher = more viable host cells
# Settings: 10 µM; treatment time 4 h; gentamicin 50 µg/ml
row,SMILES,host macrophage viability
1,COc1ccc(C(=O)N2CCc3c(c(C(=O)NCc4ccc(F)cc4)nn3C)C2)cc1,103%
2,CC(=O)Nc1cccc(-c2nn3c(C)nnc3s2)c1,125%
3,Cc1cc(Cl)cc2sc(N(Cc3cccnc3)C(=O)C(C)C)nc12,65%
4,COc1cccc(NC(=O)c2ccc(S(=O)(=O)N3CCc4ccccc4C3)cc2)c1,125%
5,CC(=O)Nc1cccc(NC(=O)NC2CC(=O)N(c3ccc4c(c3)OCCO4)C2)c1 (centres undefined),119%
6,CCc1cc(C)cc(OC(=O)CSc2nc(-c3ccc(OC)cc3)nc3cc(=O)[nH]n23)c1,137%
7,O=C(Nc1nc2c(s1)COc1ccccc1-2)c1cccc(NS(=O)(=O)c2ccc(F)cc2)c1,120%
8,CNC(=O)c1ccsc1NC(=O)c1ccc(S(=O)(=O)N2CCCC2)cc1,114%
9,Nc1cc(OC(=O)c2ccc(F)cc2)nn1S(=O)(=O)c1ccccc1,107%
10,Cc1cc2oc(C(=O)NCc3ccc4c(c3)OCO4)c(C)c2cc1C,119%
11,COCCn1ccc2c(OCC(=O)NCc3ccc(C)cc3)cccc2c1=O,103%
12,COCCNC(=O)C1CCN(c2nc(-c3ccc(Cl)cc3)no2)CC1,104%
13,Cc1nc2cc(F)ccc2n1C1CCN(C(=O)Nc2ccccc2-c2ccccc2)CC1,110%
14,Cc1ccc(CN(C(=O)CC(C)C)c2nc3[nH]c(C)c(C)c(=O)n3n2)cc1,127%
15,CCS(=O)(=O)c1nc2ccccc2n1Cc1cccc2ccccc12,108%
16,Cc1ccc(C(=O)c2sc3nc4c(c(-c5ccco5)c3c2N)CCCCC4)cc1,112%
17,N#C/C(C(=O)NCc1ccccc1)=C1/N=C(NC(=O)c2cccnc2)c2ccccc21,131%
18,CCOc1ccc(NC(=O)c2oc3ccccc3c2NC(=O)CC2CCCC2)cc1,103 ± 2.8%
19,CCOC(=O)c1cccc(NC(=O)COc2ncnc3oc(C)c(C)c23)c1,131%
20,Cc1c(C(=O)NC(C(=O)OC(C)(C)C)C(C)C)sc2ncn(C)c(=O)c12 (centres undefined),99.8%
21,CCc1nnsc1C(=O)Nc1ccc(S(N)(=O)=O)cc1,108%
22,O=C(CS(=O)(=O)c1ccc(Cl)cc1)Nc1ccc2scnc2c1,121%
23,Cc1cc2cc(C#N)c(SCC(=O)OCc3ccccc3)nc2cc1C,121%
24,O=C(CSc1nc2ccccc2nc1-c1ccccc1)Nc1ccc2c(c1)OCO2,102%
25,CCCCN(C)C(=O)c1ccc(-c2cccc(F)c2)nc1,104%
26,Cc1cc(NC(=O)CSc2nncc(=O)n2N)no1,117%

# Compounds shown so far that contain an aryl thioether with sulfur outside any ring:
row,SMILES,host macrophage viability
6,CCc1cc(C)cc(OC(=O)CSc2nc(-c3ccc(OC)cc3)nc3cc(=O)[nH]n23)c1,137%
23,Cc1cc2cc(C#N)c(SCC(=O)OCc3ccccc3)nc2cc1C,121%
24,O=C(CSc1nc2ccccc2nc1-c1ccccc1)Nc1ccc2c(c1)OCO2,102%
26,Cc1cc(NC(=O)CSc2nncc(=O)n2N)no1,117%

# (further entries)

row,SMILES,host macrophage viability
1,COc1ccccc1CNc1ncnc(N)c1[N+](=O)[O-],112%
2,COc1ccc(Cl)cc1NC(=O)CN1C(=O)[C@@H]2CCCN2C(=O)c2ccccc21,120%
3,CCOc1ccc2ncc(S(=O)(=O)c3ccccc3)c(Nc3ccc(OC)c(OC)c3)c2c1,106%
4,O=C(Nc1nnc(SCc2cccnc2)s1)C1CC(=O)N(c2ccccc2)C1 (centres undefined),127%
5,CC(=O)c1ccc(/N=c2\oc3ccccc3cc2C(N)=O)cc1,119 ± 3.5%
6,CC1Cc2nc(SCC(=O)Nc3ccc4c(c3)OCO4)n(Cc3ccccc3)c(=O)c2S1 (centres undefined),109%
7,CCCn1c(=S)[nH]c2cc(C(=O)NCc3ccccc3)ccc2c1=O,119%
8,Nc1cc(-c2ccccc2)nn1-c1nc(-c2cccc(O)c2)cs1,96.4%
9,Cc1cc(C)cc(NC(=O)C2CC3CCCN3C23C(=O)N(C)c2ccccc23)c1 (centres undefined),97.5%
10,COCCCn1c(SCc2nc(-c3ccccc3)no2)nc2cc3c(cc2c1=O)OCO3,127%
11,C=CCNc1nc2c(c(=O)n(C)c(=O)n2C)n1CC(=C)C,129%
12,Oc1ncnc2c1c(-c1ccccc1)cn2-c1cccc(Cl)c1,122%
13,COc1ccc(C(=O)CSc2nc(C)cc(=O)[nH]2)cc1OC,104 ± 15%
14,Cc1ccc(SCCCC(=O)Nc2nc3ccc4sc(C)nc4c3s2)cc1,131%
15,Cc1ccc(C(=O)NCCn2ccc(C)n2)c(N2CCN(CCO)CC2)n1,111%
16,COc1ccccc1/C=C/C1=NC(=C\c2coc3ccccc3c2=O)/C(=O)O1,113%
17,COc1ccccc1/N=c1\sc(C(C)=O)c(C)n1CCCN1CCOCC1,113%
18,COc1ccc(C2NCCc3cc(O)c(O)cc32)cc1OC (centres undefined),129%
19,O=C(NCc1ccccc1)N1CCCC1c1nc(Cc2ccc(F)cc2)n[nH]1 (centres undefined),126%
20,COc1cc(C2c3sc(=O)[nH]c3SC3C4CCC(C4)C23)ccc1O (centres undefined),109%
21,O=C(Nc1ccc(F)cc1F)c1nnc(C2CCN(S(=O)(=O)c3c[nH]cn3)CC2)s1,114%
22,O=C(CCCc1nnc2c(=O)n(-c3ccc(Cl)cc3)ccn12)N1CCN(C2CCCCC2)CC1,132%
23,O=C(CSC1=N/C(=C/c2ccc3c(c2)OCO3)C(=O)N1c1ccccc1)c1ccccc1,117 ± 3%
24,O=C(CCN1CCOCC1)N/N=C/c1ccc(OC(=O)c2cccnc2)cc1,110 ± 6.1%
25,CSc1cccc2sc(Nc3ccccc3Cl)nc12,121%
26,Cc1ccc(-n2ncc3c(=O)n(CC(=O)NCc4ccccc4)cnc32)cc1,112 ± 15%

row,SMILES,host macrophage viability
1,O=C(CSc1nc2c(cnn2-c2ccccc2)c(=O)[nH]1)NCCc1ccccc1,123%
2,O=C(COc1ccc(Cl)cc1/C=C1\SC(=O)NC1=O)Nc1ccccc1,119%
3,Cc1ccc(-c2csc(-c3cccn3CC(=O)N3CCCCCC3)n2)cc1,91%
4,O=C(Nc1cccc2ccccc12)C1CCN(c2nnnn2-c2ccccc2)CC1,121%
5,COCCn1c(C)cc(O)c(C(c2ccncc2)N2CCC(C)CC2)c1=O (centres undefined),116%
6,CC(Oc1ccccc1)C(=O)N1CCC2(CC1)CC(=O)c1ccccc1O2 (centres undefined),106%
7,NC(=O)c1cc2c(ccc3ccccc32)o/c1=N\NC(=O)c1ccccc1,146%
8,Cc1cc(C)nc(SCc2cc(=O)c(OC(=O)c3ccc4c(c3)OCO4)co2)n1,120%
9,O=C1CC(c2cccc(F)c2)Sc2nc3ccccc3n21 (centres undefined),104%
10,N#CCn1ccn(-c2ccc3c(c2)OCO3)c(=O)c1=O,127%
11,O=C(NCc1ccc2c(c1)OCO2)c1c(O)nc2sccn2c1=O,108%
12,Cc1ccc(NC(=O)CN2CCC(C(=O)c3ccc4c(c3)OCCO4)CC2)cc1Cl,123%
13,CC(C)c1ccc2nc(SCC(=O)NC3CCCC3)c(C#N)cc2c1,119%
14,O=C(NNc1nc2c(Cl)cccc2s1)c1cc(=O)c2ccccc2o1,107 ± 4.3%
15,CC(=O)c1c(C)oc2ccc(NS(=O)(=O)c3cc4c5c(cccc5c3)C(=O)NC4=O)cc12,110%
16,CCc1nc2ccc(NC(=O)C3(C)CC(=O)N=C4C=C(C)C=CN43)cc2[nH]1 (centres undefined),110%
17,CC/N=C1/SC(CC(=O)Nc2sc(CC)cc2C(=O)OCC)C(=O)N1CC (centres undefined),116%
18,COc1cccc(CNC(=O)CSc2nnc3c4ccccc4n(C)c3n2)c1,125%
19,CC(C)N1CCc2c(sc(NC(=O)c3ccc(Br)cc3)c2C(N)=O)C1,147%
20,Cc1oc(-c2ccc(F)cc2)nc1C(=O)Nc1cccc(-n2cnnc2)c1,122%
21,O=C(CSc1nc(O)c2ccccc2n1)N1CCOCC1,115%
22,COc1ccc(-n2c(=O)[nH]cc(C(=O)N3CCc4ccccc43)c2=O)cc1OC,104.1 ± 0.28%
23,N#C/C(=C\Nc1cc([N+](=O)[O-])ccc1F)c1nc(-c2cccs2)cs1,112 ± 19%
24,COc1cccc(-c2cc3nc4c(c(O)n3n2)CCC4)c1,115%
25,CCCc1cc(=O)[nH]c(Nc2cc(Cl)ccc2O)n1,96%
26,Cc1ccc(-n2c(C)cs/c2=N\C(=S)Nc2ccccc2)cc1,119%

row,SMILES,host macrophage viability
1,Cc1nn(C)c(C)c1NC(=O)CCn1c(-c2ccc(F)cc2)cc2cccnc21,115%
2,Cc1nn2c(N(C)C)cc(C(C)(C)C)nc2c1-c1ccc(F)cc1,123%
3,COc1cc(OC)c(NS(=O)(=O)c2cc(-c3cc(C(F)(F)F)on3)cs2)cc1Cl,117%
4,Cc1ccc2cc(CN(C(=O)Nc3ccccc3F)C3CCCC3)c3nnnn3c2c1,109%
5,CCn1c(C(=O)NCc2ccccn2)c(N2CCCC2=O)c2cc(F)ccc21,113%
6,CC[C@@H](Cn1nc(-c2cccs2)ccc1=O)NC(=O)c1cccs1,108%
7,COC(=O)C1=C(N)Oc2c(oc(CO)cc2=O)C1c1ccc2c(c1)OCO2 (centres undefined),98.1%
8,O=C(NCCCC1CCOC1)c1cnn(-c2ccc(F)cc2)c1 (centres undefined),109%
9,COc1cccc(NCc2cc3c(C)nn(-c4ccc(F)cc4)c3[nH]c2=O)c1,116%
10,Nc1ncnc(SC2=NCCCN2)c1[N+](=O)[O-],113%
11,COc1ccc(C2=C(C)C(N3CCC(C(=O)NCc4ccc5c(c4)OCO5)CC3)=NS2(=O)=O)cc1,125%
12,Cc1cccc2sc(NC(=O)CN3C(=O)c4ccccc4S3(=O)=O)nc12,131%
13,O=C(CCn1cnc2c(-c3ccccc3)noc2c1=O)NC1CCS(=O)(=O)C1 (centres undefined),115%
14,Cc1cccc2c1NC(=O)C2(O)CC(=O)c1ccc(-c2ccc(Cl)cc2)o1 (centres undefined),110%
15,Cc1cn2c3c(=O)n(C)c(=O)n(C)c3nc2n1CCCn1ccnc1,115%
16,CC(=O)Nc1c(C)cc(C)c(NS(=O)(=O)c2ccc3c(c2)NC(=O)CO3)c1C,116%
17,COc1ccc(OC)c(CCn2c(=S)[nH]c3c(oc4ccccc43)c2=O)c1,136%
18,CC(=O)c1ccc(S(=O)(=O)Nc2ccc(-n3c(C)nc4ccccc4c3=O)cc2)cc1,135%
19,O=C(NCc1ccc2c(c1)OCO2)C1CCN(c2nccn3nc(-c4ccc(F)cc4)cc23)CC1,135%
20,CN1CCCC(NC(=O)COc2ncnc3ccccc23)C1 (centres undefined),119%
21,CCCC(CCC)C(=O)N1CCC(c2nnc(C(=O)Nc3ccccc3C)s2)CC1,113%
22,O=C(NCc1cccs1)c1cnc2cc3c(cc2c1O)OCCO3,104%
23,COc1ccc(NC(=O)C2CCCN2C(=O)NC2CCCCC2)c(OC)c1 (centres undefined),117%
24,CCOC(=O)c1oc2ccccc2c1NC(=O)c1cccc([N+](=O)[O-])c1,121 ± 8%
25,Cc1ccc(CNC(=O)CCc2nc(N3CCCC3)c3c(C)noc3n2)cc1,102%
26,CC(NC(=O)COc1ncnc2onc(-c3cccc(F)c3)c12)c1ccccc1 (centres undefined),129%
